No constants are given. Whether binding was seen depends on the method and setting. Binding seen in cells or lysates may run through a third protein. A result given as binding can be weak or reduced; the word gives no strength.
Biological target: spectrin α (mouse (endogenous in red blood cells))
Assay: co-IP; hemoglobin-depleted mouse RBC lysate incubated 1 h at 37°C with anti-spectrin or anti-protein 4.1 antibody, then 1 h at 37°C with protein A/G magnetic beads; 20 mM Tris pH 7.5, 150 mM NaCl, 5 mM MgCl2, 1 mM DTT, 1% Triton X-100; IGG as negative control; Western blot against SART3

B1: squamous cell carcinoma antigen recognized by T-cells 3 (SART3) (protein, UniProt Q9JLI8 1-962)
chain: MATTAASSASEPEVEPQAGPEAEGEEDEAKPAGVQRKVLSGAVAAEAAEAKGPGWDLQREGASGSDGDEEDAMASSAESSAGEDEWEYDEEEEKNQLEIERLEEQLSINGYDYNCHVELIRLLRLEGELSRVRAARQKMSELFPLTEELWLEWLHDEISMAMDGLDREHVYELFERAVKDYICPNIWLEYGQYSVGGIGQKGGLEKVRSVFERALSSVGLHMTKGLAIWEAYREFESAIVEAARLEKVHSLFRRQLAIPLYEMEATFAEYEEWSEEPMPESVLQSYQKALGQLEKYKPYEEALLQAEAPRLAEYQAYIDFEMKIGDPARIQLIFERALVENCLVPDLWIRYSQYLDRQLKVKDLVLSVHSRAVRNCPWTVALWSRYLLAMERHGLDHQTISATFENALSAGFIQATDYVEIWQVYLDYLRRRVDFRQDSSKELEELRSMFTRALEYLQQEVEERFSESGDPSCLIMQSWARVEARLCNNMQKARELWDSIMTRGNAKYANMWLEYYNLERAHGDTQHCRKALHRAVQCTSDYPEHVCEVLLTMERTEGTLEDWDLAIQKTETRLARVNEQRMKAAEKEAALVQQEEEKAEQRKKVRAEKKALKKKKKTRGADKRREDEDEENEWGEEEEEQPSKRRRTENSLASGEASAMKEETELSGKCLTIDVGPPSKQKEKAASLKRDMPKVAHDSSKDSVTVFVSNLPYSIEEPEVKLRPLFEVCGEVVQIRPIFSNRGDFRGYCYVEFGEEKSAQQALELDRKIVEGRPMFVSPCVDKSKNPDFKVFRYSTTLEKHKLFISGLPFSCTKEELEDICKAHGTVKDLRLVTNRAGKPKGLAYVEYENESQASQAVMKMDGMTIRENVIKVAISNPPQRKVPEKPEVRTAPGAPMLPRQMYGARGKGRTQLSLLPRALQRQGAAPQAENGPAPGPAVAPSVATEAPKMSNADFAKLLLRK
For B1, the binding was “binds”.

Source: paper PMC6004055
